Some of the results follow. These are further read-outs of the screen, such as a control signal, another cell line or another target. No call is given for them. The list favours compounds with an active or inconclusive main result. The note in brackets gives the kind of curve behind each potency; many fits are weak.

A short description of this experiment: qHTS Assay for Modulators of Lamin A Splicing. The conditions noted are these: HeLa LMNA splicing GFP/RFP minigene ratio, 48 h. The method in brief:
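S3 HeLa cells stably expressing lamin A-EGFP splicing minigene plus DsRed2, 600 cells/well, 48 h compound exposure at 37C. Laser-scanning cytometry; analysed as GFP (500-530 nm)/RFP (575-640 nm) total intensity ratio; 0.5% DMSO vehicle.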
(qHTS replaces the single test concentration by a dilution series.)

Setting [1] is: measured here: GFP splicing reporter channel.
The mark [2] stands for this setting: measured here: RFP viability control channel.

On to `CCOc1ccccc1NC(=O)CN1c2ccccc2S(=O)(=O)c2ccccc21`, for which the AC50 under setting [1] was 39.8 µM [falling, partial curve, poor fit].

Regarding `Cc1ccc(CNC(=O)c2cc(S(=O)(=O)N3CCCCCC3)cn2C)cc1`, the AC50 under setting [1] is 6.31 µM [rising, partial curve, poor fit].

As for `COc1ccc(Cn2ccc3nc(C)c(C(=O)Nc4ccc(OC(F)(F)F)cc4)cc3c2=O)cc1`, the concentration at half-maximal activity (AC50) under setting [2] is 3.98 µM [rising, single point].

As to `CCOc1ccc(Nc2nc(N)nc(CN3CCN(c4ccccc4F)CC3)n2)cc1`, under setting [2], the AC50 is 35.5 µM [rising, single point].

Consider `Cc1ccn2c(c1)nc(=S)n2C(=O)c1ccccc1`, for which the AC50 under setting [1] is 35.5 µM [rising, single point].

`Cc1cc(NC(=O)Cn2nnc3sc4c(c3c2=O)CCC(C(C)(C)C)C4)no1` (centres undefined): the AC50 is 1.26 µM [rising, full curve] under setting [1] and 14.1 µM [rising, partial curve] under setting [2].

`C=CCN1C(c2ccc(OCC)cc2)=CS/C1=C(\C#N)c1nnc2n1CCCCC2`: the AC50 under setting [2] was 31.6 µM [rising, single point].

For `Cn1c(=O)n(Cc2ccc(F)cc2)c(=O)c2c1nc1n2CCCN1C1CCCCC1`, the AC50 was 12.6 µM [rising, partial curve] under setting [1] and 17.8 µM [rising, partial curve] under setting [2].

Take `COc1ccc(C(C)=O)cc1CN1C(=O)C(C)N(c2ccc(C)cc2)C1=O` (centres undefined): the concentration at half-maximal activity (AC50) under setting [1] was 14.1 µM [rising, single point].

For `Cc1ncc(CO)c(/C=N/NC(=S)Nc2cccc(Cl)c2)c1O`, under setting [2], the AC50 was 22.4 µM [falling, partial curve, poor fit].

On to `COC(=O)CN1C(=S)N(c2ccc(OC)cc2)C(=O)/C1=C/c1ccc(N2CCOCC2)cc1`, for which, under setting [2], the AC50 was 35.5 µM [rising, single point].

For the molecule `O=C(/C=C/c1ccccc1Cl)N(c1ccccn1)C1CCCCC1`, under setting [2], the AC50 was 35.5 µM [rising, single point].

Consider `COc1cccc(CNC(=O)C2CCN(S(=O)(=O)N3CCC(C)CC3)CC2)c1`, for which the AC50 under setting [2] is 0.112 µM [falling, full curve, poor fit].

For `O=C(O)c1cc([N+](=O)[O-])ccc1NCCCc1ccccc1`, under setting [2], the AC50 was 14.1 µM [rising, single point].

For `NC(=O)CSc1ncnc2c1cnn2Cc1ccccc1`, under setting [2], the concentration at half-maximal activity (AC50) was 5.01 µM [rising, full curve, poor fit].

With `CCOC(=O)c1c(S(=O)(=O)N2CCC(C(=O)Nc3ccc(OCC)cc3)CC2)c(C)n(C)c1C`, the AC50 under setting [2] is 0.112 µM [falling, full curve].

With `CCN(Cc1ccncc1)C(=O)[C@@H](CO)c1ccccc1`, the AC50 under setting [1] was 0.0794 µM [falling, full curve] and the AC50 under setting [2] is 0.0794 µM [falling, full curve].

As for `CN(c1ccc(C(=O)N2CCCCC2)cc1)S(=O)(=O)c1ccccc1`, the AC50 by setting is: under setting [1], 35.5 µM [rising, single point]; under setting [2], 31.6 µM [rising, single point].

As to `O=C(Nc1cccc(Cl)c1N1CCCC1)c1ccc([N+](=O)[O-])o1`, the AC50 under setting [2] is 7.94 µM [rising, partial curve].

On to `c1ccc(-c2ccc(-c3nc(-c4ccccn4)no3)cc2)cc1`, for which the AC50 under setting [2] was 28.2 µM [rising, single point].

With `Cc1ccc(CS/C(Nc2ccccc2C)=C(\C#N)C(N)=O)c(C)c1`, the AC50 under setting [1] was 14.1 µM [rising, partial curve, poor fit] and the concentration at half-maximal activity (AC50) under setting [2] was 20 µM [rising, partial curve, poor fit].

Consider `CCNc1nc(SCCOc2ccc(C)cc2)nc(N(C)C)n1`, for which the AC50 by setting is: under setting [1], 35.5 µM [rising, single point]; under setting [2], 35.5 µM [rising, single point].

With `Cc1cc(NC(=O)CCCN2C(=O)/C(=C\c3cccs3)SC2=S)no1`, under setting [2], the AC50 was 5.62 µM [rising, partial curve].

As to `COC(=O)c1ccc(C2/C(=C(/O)c3ccc(OC(C)C)cc3)C(=O)C(=O)N2c2cc(C)on2)cc1` (centres undefined), the AC50 under setting [1] was 35.5 µM [falling, single point] and the half-maximal activity concentration (AC50) under setting [2] was 35.5 µM [falling, single point].

Consider `O=S(=O)(c1cccc(F)c1)N1CCN(C(=S)NCc2ccccc2)CC1`, for which the AC50 under setting [2] was 11.2 µM [rising, partial curve, poor fit].

With `O=C(CCCN1C(=O)c2ccccc2C1=O)Nc1ccc2c(c1)OCCO2`, the AC50 under setting [1] is 10 µM [falling, partial curve, poor fit] and the AC50 under setting [2] was 0.708 µM [falling, full curve].

As to `CC(=O)Nc1nnc(SCc2cc(=O)c3cccc(Cl)c3[nH]2)s1`, the half-maximal activity concentration (AC50) runs as follows: under setting [1], 0.562 µM [rising, partial curve, poor fit]; under setting [2], 0.794 µM [rising, full curve, poor fit].

Take `COc1ccc(-c2nc(N=Nc3ccc(O)cc3)n[nH]2)cc1`: the AC50 under setting [2] was 17.8 µM [rising, single point].

Consider `COc1cccc2oc(-c3ccco3)cc(=O)c12`, for which, under setting [2], the AC50 was 17.8 µM [rising, partial curve, poor fit].

As to `CC1(C)S[C@@H]2[C@H](NC(=O)COc3ccccc3)C(=O)N2[C@H]1C(=O)O` (tested in a mixture with another compound), the AC50 was 0.00355 µM [falling, full curve, poor fit] under setting [1] and 0.00398 µM [falling, full curve, poor fit] under setting [2].

As to `CC(=O)N1c2ccc(S(=O)(=O)N3CCCCCC3)cc2CC1C(=O)NCc1ccccc1F` (centres undefined), the AC50 was 10 µM [falling, partial curve] under setting [1] and 10 µM [falling, partial curve, poor fit] under setting [2].

For the molecule `CCC1(O)CC2CN(CCc3c([nH]c4ccccc34)[C@@](C(=O)OC)(c3cc4c(cc3OC)N(C=O)C3[C@]45CCN4CC=C[C@@](CC)([C@@H](OC(C)=O)[C@]3(O)C(=O)OC)[C@H]45)C2)C1` (some centres undefined), the AC50 by setting is: under setting [1], 0.0251 µM [falling, full curve]; under setting [2], 0.0708 µM [falling, full curve].

Regarding `CC(C)CC[n+]1ccn(C2=C([O-])c3ccccc3C(=O)/C2=N\S(=O)(=O)c2ccccc2)c1`, the AC50 under setting [1] was 22.4 µM [falling, single point] and the AC50 under setting [2] is 35.5 µM [falling, single point].

As for `CCOc1ccc(CCNC(=O)CN2C(=O)c3cccnc3Oc3ccc(Cl)cc32)cc1`, under setting [2], the AC50 was 0.158 µM [falling, full curve, poor fit].

On to `O=C(OCn1ncc(Cl)c(Cl)c1=O)c1ccccc1Cl`, for which the AC50 is, setting by setting: under setting [1], 7.08 µM [falling, partial curve]; under setting [2], 10 µM [falling, partial curve].

Take `COc1cccc(NC(=O)c2nn(C34CC5CC(CC(C5)C3)C4)cc2[N+](=O)[O-])c1`: the AC50 under setting [1] is 22.4 µM [rising, single point] and the AC50 under setting [2] is 25.1 µM [rising, single point].

As to `CCOC(=O)c1c(NC(=O)/C=C\C(=O)O)sc(C)c1-c1ccccc1`, the AC50 runs as follows: under setting [1], 20 µM [falling, single point]; under setting [2], 35.5 µM [falling, single point].

In the case of `CCOc1cc(C(=O)NCCc2csc(-c3ccc(C)cc3)n2)cc(OCC)c1OCC`, the AC50 was 10 µM [falling, partial curve] under setting [1] and 12.6 µM [falling, partial curve] under setting [2].

For `CCOC(=O)N1CCN(C(=O)CSc2ncnc3ccccc23)CC1`, the AC50 under setting [2] was 35.5 µM [rising, single point].

For the molecule `CCOC(=O)N1CCC(NC(=O)C2CCCN(S(=O)(=O)c3ccc4c(c3)oc(=O)n4C)C2)CC1` (centres undefined), the AC50 under setting [2] is 25.1 µM [rising, single point].

On to `N#CCC(=O)Nc1ccc(C(=O)NCc2ccccn2)cc1`, for which the half-maximal activity concentration (AC50) is, setting by setting: under setting [1], 31.6 µM [falling, partial curve, poor fit]; under setting [2], 6.31 µM [falling, partial curve].

Turning to `O=C(Nc1ccc(F)cc1Cl)C1Cc2ccccc2N1C(=O)c1ccccc1` (centres undefined), under setting [1], the AC50 was 6.31 µM [rising, partial curve, poor fit].

On to `CN(C)S(=O)(=O)c1ccc(N2CCN(S(=O)(=O)c3ccc(F)cc3)CC2)c(Cl)c1`, for which the AC50 under setting [2] is 25.1 µM [rising, single point].

With `COc1cccc(-c2nn(-c3ccccc3)cc2C(=O)O)c1`, the AC50 is, setting by setting: under setting [1], 6.31 µM [falling, partial curve, poor fit]; under setting [2], 0.112 µM [falling, partial curve, poor fit].

Consider `COCCCNS(=O)(=O)c1ccc(SC)cc1`, for which the AC50 under setting [1] is 35.5 µM [rising, single point].

Consider `CCc1c(C)nc2ncnn2c1N1CCC(C(=O)Nc2ccc(C)cc2)CC1`, for which the AC50 under setting [2] was 31.6 µM [rising, single point].

As for `Cc1ccc2cc(C)c(Sc3nnnn3-c3ccccc3)nc2c1`, under setting [2], the AC50 was 0.251 µM [rising, full curve, poor fit].

Turning to `CN=C1c2ccccc2CN1c1cccc(C(=O)OC)c1`, under setting [2], the AC50 is 12.6 µM [rising, single point].

`Cc1ccccc1C(=O)NCC(=O)O`: under setting [1], the concentration at half-maximal activity (AC50) was 2.24 µM [rising, full curve, poor fit].

With `CSc1cccc(CN2CCC(CO)(Cc3cccc(C(F)(F)F)c3)CC2)c1`, the AC50 under setting [1] was 22.4 µM [falling, partial curve, poor fit] and the AC50 under setting [2] is 22.4 µM [falling, partial curve].

Consider `C=CCN1c2ccccc2[C@]23C[C@@H](C(=O)OC)N(S(=O)(=O)CCCC)C2=NC(C(=O)OC)=C(C(=O)OC)[C@H]13`, for which, under setting [1], the AC50 is 0.631 µM [falling, single point].

As for `ClCC1NCC(c2ccccc2Cl)c2c1[nH]c1ccccc21` (centres undefined), the AC50 under setting [2] is 17.8 µM [falling, single point].

With `O=S(=O)(Nc1ccc(-n2cccc2)cc1)c1ccc(Cl)c(Cl)c1`, the AC50 is, setting by setting: under setting [1], 2.82 µM [falling, partial curve, poor fit]; under setting [2], 10 µM [falling, partial curve].

One may read the AC50 as the midpoint of the concentration-response curve, whichever way the signal moves.

These data come from PubChem BioAssay AID1487 (National Center for Advancing Translational Sciences (NCATS), 2009).
